# Data taken from PubChem BioAssay AID624297 (National Center for Advancing Translational Sciences (NCATS), 2012).
# Out of some 340,000 compounds screened, about 6,200 (1.8%) were called active. The inconclusive results got no clear call from the source; some entries with a clear call stand among them for comparison. Calls follow the shape of the dose curve; as a rule, active = well fitted activation curve with a large enough effect; inconclusive = small, poorly fitted or top-dose-only effect; inactive = no such curve, though single readings can be large or run the other way. A potency beside an inconclusive call is a rough fit, not a confirmed value.
# Assay: A quantitative high throughput screen for small molecules that induce DNA re-replication in SW480 colon adenocarcinoma cells. Also: nearly all actives have a fitted effect of over 55% in size. As to re-replication activation: % of control where 0% means no effect.
# Conditions: Hoechst DNA content imaging, 48 h; re-replication activation: at 46.1 µM (top of the series) unless noted
# Summary of the method: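 Per well, 250 cells were exposed to pinned compound for 48 hr. Nuclear DNA was visualised with Hoechst (40 min, 37 C) and total object intensity recorded by fluorescence scanning.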
# Potency is read from the fitted curve at half-maximal effect.
SMILES,re-replication activation,Potency
CC(C)OC(=O)c1ccccc1C(=O)c1ccc(N)c([N+](=O)[O-])c1,inactive: -2.21%,–
OC(CNCCc1ccc(C(F)(F)F)cc1)COc1ccc2ccccc2c1 (stereo not drawn),–,"inconclusive: 29.1 µM [activator, single point]"
CN(C)CCCN(C(=O)c1ccco1)c1nc2ccc(Cl)cc2s1,–,"inconclusive: 18.4 µM [activator, single point]"
COc1ccc(-n2c(SCC#N)nnc2-c2ccc(NS(=O)(=O)c3ccc(C)cc3)cc2)cc1,–,"inconclusive: 29.1 µM [activator, single point]"
CC(=O)Nc1ccc(Nc2nc(C)nc3c2nnn3Cc2ccccc2Cl)cc1,–,"inconclusive: 4.61 µM [activator, partial curve, poor fit]"
Cc1ccc(CNc2ccc(O)cc2)cc1,–,"inconclusive: 28.2 µM [activator, single point]"
COc1ccc(CCN2CCCn3c2nc2c3c(=O)[nH]c(=O)n2C)cc1OC,–,"inconclusive: 0.92 µM [activator, full curve]"
O=C(Cc1ccc(NC(=O)C2CCCN(C(=O)C3CCC3)C2)cc1)Nc1ccc(C(=O)N2CCOCC2)cc1 (stereo not drawn),–,"inconclusive: 7.31 µM [activator, partial curve, poor fit]"
COC(=O)C(Cc1ccc(O)cc1)NC(=O)NC12CC3CC(CC(C3)C1)C2 (stereo not drawn),–,"inconclusive: 23.1 µM [activator, single point]"
Cc1cc(C)c2[nH]c(=O)c(CN(Cc3cccs3)C(=S)NCC3CCCO3)cc2c1 (stereo not drawn),–,"inconclusive: 6.51 µM [activator, full curve]"
CCOC(=O)N1CCN(C(=O)c2ccccc2-c2ccccc2)CC1,–,active: 10.3 µM
CN(C)c1ccc(C(=O)N/N=C/c2ccccn2)cc1,inactive: 28.3%,–
COc1ccc([C@H]2CC(=O)C=C(c3ccnc4ccc(Cl)cc34)C2)cc1,–,"inconclusive: 29.1 µM [activator, single point]"
Cc1cccc(-c2c(NC(=O)c3ccco3)oc3ccc(Cl)cc3c2=O)c1,–,"inconclusive: 0.731 µM [activator, partial curve, poor fit]"
CC1(C(=O)NCCCNc2ncc(C(F)(F)F)cc2Cl)C=CCN1C(=O)c1ccccc1 (stereo not drawn),inactive: -5.92%,–
CCOC(=O)c1sc(N2C(=O)C(O)=C(C(=O)c3ccc(C)o3)C2c2ccc(OC)c(OC)c2)nc1C (stereo not drawn),–,"inconclusive: 9.2 µM [activator, single point]"
Cc1sc2nc(-c3ccccc3)[nH]c(=O)c2c1-c1ccccc1,inactive: -4.06%,–
O=C(CSc1nc2ccccc2c(=O)n1NC(=O)Cc1ccccc1)NCc1ccccc1Cl,–,"inconclusive: 25.9 µM [activator, partial curve, poor fit]"

# Among those listed so far, 2 have fluorine:
SMILES,re-replication activation,Potency
OC(CNCCc1ccc(C(F)(F)F)cc1)COc1ccc2ccccc2c1 (stereo not drawn),–,"inconclusive: 29.1 µM [activator, single point]"
CC1(C(=O)NCCCNc2ncc(C(F)(F)F)cc2Cl)C=CCN1C(=O)c1ccccc1 (stereo not drawn),inactive: -5.92%,–
